Measured values as given in the supplement of paper PMC10849652.
This is one part of the list.

By UniProt entry, the sequences of proteins in these tests, tags left out. Where a name states a change or a piece, a line headed by the entry shows the natural chain unless it says otherwise.
UniProt Q9BT23: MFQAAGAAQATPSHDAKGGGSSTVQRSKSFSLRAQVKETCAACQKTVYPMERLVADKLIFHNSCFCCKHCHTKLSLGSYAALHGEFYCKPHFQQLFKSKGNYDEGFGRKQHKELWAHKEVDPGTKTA
UniProt Q92604: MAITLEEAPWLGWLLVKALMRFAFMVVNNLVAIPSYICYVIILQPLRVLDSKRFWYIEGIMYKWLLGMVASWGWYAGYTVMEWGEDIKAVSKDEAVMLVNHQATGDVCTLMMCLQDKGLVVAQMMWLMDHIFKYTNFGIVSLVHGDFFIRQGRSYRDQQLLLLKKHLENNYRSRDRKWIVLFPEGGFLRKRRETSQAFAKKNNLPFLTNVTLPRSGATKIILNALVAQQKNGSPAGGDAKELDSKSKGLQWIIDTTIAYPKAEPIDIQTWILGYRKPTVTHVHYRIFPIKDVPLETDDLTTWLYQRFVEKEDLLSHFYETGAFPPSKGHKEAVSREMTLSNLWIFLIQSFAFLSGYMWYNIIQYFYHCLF
UniProt Q9Y546: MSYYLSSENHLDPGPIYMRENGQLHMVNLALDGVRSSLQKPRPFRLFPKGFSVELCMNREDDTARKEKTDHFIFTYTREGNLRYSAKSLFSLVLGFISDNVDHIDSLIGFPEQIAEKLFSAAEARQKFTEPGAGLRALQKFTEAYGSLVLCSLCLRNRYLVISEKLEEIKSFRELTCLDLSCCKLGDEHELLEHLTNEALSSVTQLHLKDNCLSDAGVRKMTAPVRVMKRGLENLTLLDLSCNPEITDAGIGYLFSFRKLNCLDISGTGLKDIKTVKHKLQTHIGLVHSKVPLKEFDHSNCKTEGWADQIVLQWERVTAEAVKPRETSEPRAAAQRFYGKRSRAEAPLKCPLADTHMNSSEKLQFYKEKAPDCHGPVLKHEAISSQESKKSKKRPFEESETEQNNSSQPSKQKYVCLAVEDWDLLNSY
UniProt Q6PJG9: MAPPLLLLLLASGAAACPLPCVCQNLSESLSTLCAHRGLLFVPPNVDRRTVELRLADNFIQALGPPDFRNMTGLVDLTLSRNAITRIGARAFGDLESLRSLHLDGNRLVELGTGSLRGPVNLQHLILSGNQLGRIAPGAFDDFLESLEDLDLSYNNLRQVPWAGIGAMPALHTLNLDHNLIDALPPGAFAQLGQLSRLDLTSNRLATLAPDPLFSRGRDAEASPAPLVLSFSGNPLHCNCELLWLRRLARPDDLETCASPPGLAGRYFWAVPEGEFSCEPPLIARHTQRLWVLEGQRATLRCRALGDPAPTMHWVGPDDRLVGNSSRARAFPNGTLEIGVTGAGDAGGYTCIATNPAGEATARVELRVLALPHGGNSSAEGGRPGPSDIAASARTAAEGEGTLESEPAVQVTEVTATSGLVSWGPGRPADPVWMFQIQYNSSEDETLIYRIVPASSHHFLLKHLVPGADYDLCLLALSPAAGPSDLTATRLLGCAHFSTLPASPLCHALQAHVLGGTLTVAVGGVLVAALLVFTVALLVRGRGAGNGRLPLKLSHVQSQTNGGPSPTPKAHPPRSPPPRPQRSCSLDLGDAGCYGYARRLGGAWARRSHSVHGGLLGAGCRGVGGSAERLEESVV
UniProt Q96JN0: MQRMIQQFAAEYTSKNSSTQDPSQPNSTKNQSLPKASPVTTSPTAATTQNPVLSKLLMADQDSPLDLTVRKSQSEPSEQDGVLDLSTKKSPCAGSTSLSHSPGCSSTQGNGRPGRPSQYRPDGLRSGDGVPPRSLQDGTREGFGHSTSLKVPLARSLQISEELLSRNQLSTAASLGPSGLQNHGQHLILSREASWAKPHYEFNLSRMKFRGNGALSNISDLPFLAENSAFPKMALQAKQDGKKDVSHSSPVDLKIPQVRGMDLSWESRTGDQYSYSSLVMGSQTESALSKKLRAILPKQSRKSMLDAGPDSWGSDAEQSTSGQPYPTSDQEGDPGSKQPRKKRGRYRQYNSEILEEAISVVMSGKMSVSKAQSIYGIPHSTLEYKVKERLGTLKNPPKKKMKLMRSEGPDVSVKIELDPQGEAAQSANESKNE
UniProt Q8N3X6: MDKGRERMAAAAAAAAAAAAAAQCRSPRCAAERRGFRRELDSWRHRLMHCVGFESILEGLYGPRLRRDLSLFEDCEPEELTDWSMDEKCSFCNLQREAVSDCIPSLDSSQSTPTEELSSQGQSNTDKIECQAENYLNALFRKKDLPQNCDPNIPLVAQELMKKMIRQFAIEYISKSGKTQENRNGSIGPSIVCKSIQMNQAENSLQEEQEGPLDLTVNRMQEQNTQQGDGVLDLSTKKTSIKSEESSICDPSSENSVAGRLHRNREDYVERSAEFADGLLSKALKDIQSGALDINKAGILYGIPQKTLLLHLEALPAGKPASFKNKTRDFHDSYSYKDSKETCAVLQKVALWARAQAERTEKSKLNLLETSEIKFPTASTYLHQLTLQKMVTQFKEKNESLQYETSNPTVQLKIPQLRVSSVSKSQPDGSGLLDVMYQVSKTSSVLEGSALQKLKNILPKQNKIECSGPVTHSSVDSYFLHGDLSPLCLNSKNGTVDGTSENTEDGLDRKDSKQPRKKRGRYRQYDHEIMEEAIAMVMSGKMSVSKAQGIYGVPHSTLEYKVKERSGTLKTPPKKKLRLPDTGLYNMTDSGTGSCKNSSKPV
UniProt P61968: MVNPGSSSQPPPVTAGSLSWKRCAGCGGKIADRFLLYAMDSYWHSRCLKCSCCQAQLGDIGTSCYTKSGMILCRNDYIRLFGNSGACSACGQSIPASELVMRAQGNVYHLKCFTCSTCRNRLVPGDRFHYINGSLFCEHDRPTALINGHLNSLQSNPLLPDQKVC
UniProt Q96FQ7: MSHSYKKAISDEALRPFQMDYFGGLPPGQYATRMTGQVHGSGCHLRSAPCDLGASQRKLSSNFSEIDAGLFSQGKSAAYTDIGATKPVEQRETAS
UniProt Q86WA8: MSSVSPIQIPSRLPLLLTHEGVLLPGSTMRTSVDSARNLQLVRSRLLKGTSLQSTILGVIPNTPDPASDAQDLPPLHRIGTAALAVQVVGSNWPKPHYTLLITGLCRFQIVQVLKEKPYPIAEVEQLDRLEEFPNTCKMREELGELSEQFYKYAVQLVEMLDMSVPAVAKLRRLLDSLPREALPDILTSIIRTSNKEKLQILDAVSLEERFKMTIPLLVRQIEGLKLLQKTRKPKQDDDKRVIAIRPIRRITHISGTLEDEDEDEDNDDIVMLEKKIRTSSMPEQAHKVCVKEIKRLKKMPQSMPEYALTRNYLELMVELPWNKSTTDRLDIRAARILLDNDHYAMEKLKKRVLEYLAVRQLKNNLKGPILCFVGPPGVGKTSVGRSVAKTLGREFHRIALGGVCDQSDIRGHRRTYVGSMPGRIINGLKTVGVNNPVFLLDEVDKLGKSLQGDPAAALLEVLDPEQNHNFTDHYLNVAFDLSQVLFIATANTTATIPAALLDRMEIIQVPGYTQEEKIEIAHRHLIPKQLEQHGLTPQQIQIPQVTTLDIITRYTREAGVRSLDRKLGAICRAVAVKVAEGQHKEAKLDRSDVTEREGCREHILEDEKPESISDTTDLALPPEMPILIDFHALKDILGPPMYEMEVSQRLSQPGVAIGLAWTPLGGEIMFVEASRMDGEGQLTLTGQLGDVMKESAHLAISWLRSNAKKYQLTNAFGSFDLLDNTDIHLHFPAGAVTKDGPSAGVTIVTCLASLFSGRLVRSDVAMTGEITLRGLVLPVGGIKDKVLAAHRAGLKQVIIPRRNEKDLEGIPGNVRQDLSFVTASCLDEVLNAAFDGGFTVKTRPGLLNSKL
UniProt Q9BQE6: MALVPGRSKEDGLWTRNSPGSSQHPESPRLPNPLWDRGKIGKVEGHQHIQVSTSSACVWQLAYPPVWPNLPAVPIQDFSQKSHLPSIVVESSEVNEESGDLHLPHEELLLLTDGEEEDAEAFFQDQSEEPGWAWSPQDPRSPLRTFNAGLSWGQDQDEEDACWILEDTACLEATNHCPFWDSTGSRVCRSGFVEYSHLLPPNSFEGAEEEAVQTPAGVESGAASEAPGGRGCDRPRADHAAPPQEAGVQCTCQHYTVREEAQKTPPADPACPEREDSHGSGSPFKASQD
UniProt Q5T3J3: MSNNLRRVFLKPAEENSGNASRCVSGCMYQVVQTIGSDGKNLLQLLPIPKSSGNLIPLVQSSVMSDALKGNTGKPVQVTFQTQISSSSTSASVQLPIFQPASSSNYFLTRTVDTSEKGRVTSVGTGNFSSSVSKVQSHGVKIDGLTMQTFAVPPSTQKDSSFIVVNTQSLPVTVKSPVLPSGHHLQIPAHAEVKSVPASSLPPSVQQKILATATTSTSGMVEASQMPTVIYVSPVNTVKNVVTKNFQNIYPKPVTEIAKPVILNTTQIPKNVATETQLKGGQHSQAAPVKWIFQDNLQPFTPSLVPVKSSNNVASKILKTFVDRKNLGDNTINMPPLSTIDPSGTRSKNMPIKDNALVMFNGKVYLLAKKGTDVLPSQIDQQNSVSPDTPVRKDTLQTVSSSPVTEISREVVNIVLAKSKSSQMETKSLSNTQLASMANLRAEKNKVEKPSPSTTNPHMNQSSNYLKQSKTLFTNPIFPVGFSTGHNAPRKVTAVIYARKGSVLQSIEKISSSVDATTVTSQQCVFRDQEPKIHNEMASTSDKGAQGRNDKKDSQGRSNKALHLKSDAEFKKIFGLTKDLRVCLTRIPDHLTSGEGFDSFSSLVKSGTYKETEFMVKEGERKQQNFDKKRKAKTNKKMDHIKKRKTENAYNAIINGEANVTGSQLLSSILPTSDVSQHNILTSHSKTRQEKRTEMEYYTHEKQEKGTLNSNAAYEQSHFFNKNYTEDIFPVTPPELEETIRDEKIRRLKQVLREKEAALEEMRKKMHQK
UniProt P23490: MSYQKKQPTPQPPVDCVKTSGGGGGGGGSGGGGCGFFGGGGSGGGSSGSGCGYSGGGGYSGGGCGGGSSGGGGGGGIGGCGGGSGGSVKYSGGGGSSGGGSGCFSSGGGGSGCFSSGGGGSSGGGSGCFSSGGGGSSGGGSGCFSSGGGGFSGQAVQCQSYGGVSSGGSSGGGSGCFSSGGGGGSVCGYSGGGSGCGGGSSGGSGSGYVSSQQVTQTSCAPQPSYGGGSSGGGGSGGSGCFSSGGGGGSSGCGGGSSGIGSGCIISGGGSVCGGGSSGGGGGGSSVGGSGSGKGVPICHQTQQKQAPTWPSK
UniProt P80188: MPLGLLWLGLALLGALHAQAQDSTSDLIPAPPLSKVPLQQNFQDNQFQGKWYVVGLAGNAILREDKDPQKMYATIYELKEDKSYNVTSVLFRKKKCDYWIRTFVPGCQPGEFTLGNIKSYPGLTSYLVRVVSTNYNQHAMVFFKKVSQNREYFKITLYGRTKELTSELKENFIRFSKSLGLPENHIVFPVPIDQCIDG
UniProt Q86X29: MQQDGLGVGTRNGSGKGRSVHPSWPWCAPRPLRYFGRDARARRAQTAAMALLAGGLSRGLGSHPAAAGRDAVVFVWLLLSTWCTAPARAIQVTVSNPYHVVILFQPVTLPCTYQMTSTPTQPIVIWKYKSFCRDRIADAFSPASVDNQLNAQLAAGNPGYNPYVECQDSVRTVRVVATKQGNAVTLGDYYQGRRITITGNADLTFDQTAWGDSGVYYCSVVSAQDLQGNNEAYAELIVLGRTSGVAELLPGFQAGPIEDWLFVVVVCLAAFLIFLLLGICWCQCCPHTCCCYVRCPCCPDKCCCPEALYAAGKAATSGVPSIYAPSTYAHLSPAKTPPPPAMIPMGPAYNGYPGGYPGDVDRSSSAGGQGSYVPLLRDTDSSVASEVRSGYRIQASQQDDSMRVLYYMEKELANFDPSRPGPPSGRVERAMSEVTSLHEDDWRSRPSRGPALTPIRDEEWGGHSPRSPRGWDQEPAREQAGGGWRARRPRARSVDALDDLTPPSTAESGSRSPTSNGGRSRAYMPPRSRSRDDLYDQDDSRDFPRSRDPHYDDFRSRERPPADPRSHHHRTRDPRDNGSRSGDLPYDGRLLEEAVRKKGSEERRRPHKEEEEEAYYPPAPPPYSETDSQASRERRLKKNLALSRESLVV
UniProt Q86WU2: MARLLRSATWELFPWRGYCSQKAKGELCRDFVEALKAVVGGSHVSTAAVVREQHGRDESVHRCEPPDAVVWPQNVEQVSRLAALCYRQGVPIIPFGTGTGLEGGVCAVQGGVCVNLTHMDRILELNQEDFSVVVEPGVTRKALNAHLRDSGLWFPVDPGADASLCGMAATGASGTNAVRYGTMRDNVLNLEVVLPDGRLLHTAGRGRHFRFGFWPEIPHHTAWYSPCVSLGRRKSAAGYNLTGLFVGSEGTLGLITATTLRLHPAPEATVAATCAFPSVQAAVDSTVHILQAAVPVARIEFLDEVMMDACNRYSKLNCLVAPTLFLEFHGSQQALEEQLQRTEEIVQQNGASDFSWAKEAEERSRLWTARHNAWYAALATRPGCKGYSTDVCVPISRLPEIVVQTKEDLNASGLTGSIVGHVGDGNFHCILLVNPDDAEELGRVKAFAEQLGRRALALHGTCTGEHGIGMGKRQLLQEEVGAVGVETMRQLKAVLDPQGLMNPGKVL
UniProt Q99732: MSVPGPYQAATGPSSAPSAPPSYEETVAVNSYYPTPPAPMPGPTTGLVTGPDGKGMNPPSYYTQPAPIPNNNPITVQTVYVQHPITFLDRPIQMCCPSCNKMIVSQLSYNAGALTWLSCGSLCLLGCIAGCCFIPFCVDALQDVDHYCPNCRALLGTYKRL

Experiments:
Test in all cases: log2 fold change, soluble protein after heating vs DMSO (PISA); higher = thermal stabilisation; K562 lysate, 10 uM; active = over 0.2 and 3.5 SD of the protein, either way, in both replicates (recomputed)
ibrutinib = compound: C=CC(=O)N1CCC[C@@H](n2nc(-c3ccc(Oc4ccccc4)cc3)c3c(N)ncnc32)C1 [ibrutinib]
In short: (§1)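 Log-two fold change in thermal stability relative to solvent controls is reported from duplicates. For each sample, crude K562 extract from dounce-homogenised pellets in PBS pH 7.4 with 1 mM MgCl2, at 1 mg/mL protein, was treated with 10 μM compound for 30 min. Aliquots heated for 3 min across 48°C-58°C were pooled, brought to 0.5% NP-40 at 4°C and cleared at 21,000xg for 90 min. The supernatant was quantified by TMTpro 16plex LC-MS/MS with channel sums equalised.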

[1] = compound: CC1=C(C=C(C=C1)NC(=O)C2=CC(=CC=C2)C(C)(C)C#N)NC3=CC4=C(C=C3)N=CN(C4=O)C
In short: as §1

barasertib = compound: CCN(CCCOc1ccc2c(Nc3cc(CC(=O)Nc4cccc(F)c4)[nH]n3)ncnc2c1)CCOP(=O)(O)O [barasertib]
In short: as §1

sotrastaurin = compound: CN1CCN(c2nc(C3=C(c4c[nH]c5ccccc45)C(=O)NC3=O)c3ccccc3n2)CC1 [sotrastaurin]
In short: as §1

ralimetinib = compound: CC(C)(C)Cn1c(N)nc2ccc(-c3[nH]c(C(C)(C)C)nc3-c3ccc(F)cc3)nc21 [ralimetinib]
In short: as §1

[2] = compound: CC(C)(O)CC(=O)NCCn1ccc2ncnc(Nc3ccc(Oc4cccc(C(F)(F)F)c4)c(Cl)c3)c21
In short: as §1

[3] = compound: CC1=C(C=C(C=C1)NC(=O)C2=CC(=CC=C2)N(C)C)NC(=O)C3=CC=C(C=C3)O
In short: as §1

vemurafenib = compound: CCCS(=O)(=O)Nc1ccc(F)c(C(=O)c2c[nH]c3ncc(-c4ccc(Cl)cc4)cc23)c1F [vemurafenib]
In short: as §1

[4] = compound: CC[C@@H]1C(=O)N(C)c2cnc(Nc3ccc(C(=O)NC4CCN(C)CC4)cc3OC)nc2N1C1CCCC1
In short: as §1

[5] = compound: CCn1c(C(=O)N(C2CC2)C2CC2)cc2c3c(ncn3C)c(Nc3cc(C)n(C)n3)nc21
In short: as §1

[6] = compound: CCn1cc(-c2ccnc3[nH]c(-c4cccc(CN(C)C)c4)cc23)c(-c2ccc(NC(=O)N(C)C)cc2)n1
In short: as §1

[7] = compound: CN1CCC(CNc2ccc3ncc(-c4cccc(OC(F)(F)F)c4)n3n2)CC1
In short: as §1

[8] = compound: CC(C)C1=C2N=C(C=C(N2N=C1)NCC3=CC=CC=C3)NCCCCCCN
In short: as §1

[9] = compound: CC1=C(C(CC(=O)N1)C2=CC=C(C=C2)C(F)(F)F)C(=O)NC3=C(C=C4C(=C3)C=NN4)F
In short: as §1

[10] = compound: CC1=C(C2=C(C=C1)C(=O)C3=CC=CC=C3N2CCCN)C
In short: as §1

saracatinib = compound: CN1CCN(CCOc2cc(OC3CCOCC3)c3c(Nc4c(Cl)ccc5c4OCO5)ncnc3c2)CC1 [saracatinib]
In short: as §1

[11] = compound: CC(=O)c1cnc2ccc(-c3cc(Cl)c(O)c(Cl)c3)nc2c1N[C@H]1CC[C@H](CN(C)C)CC1
In short: as §1

[12] = compound: CC1=CC=C(C=C1)SC2=C3C=C(SC3=CN=C2)C(=O)N
In short: as §1

[13] = compound: CCCS(=O)(=O)Nc1ccc(F)c(C(=O)c2c[nH]c3ncc(Cl)cc23)c1F
In short: as §1

volasertib = compound: CC[C@@H]1C(=O)N(C)c2cnc(Nc3ccc(C(=O)N[C@H]4CC[C@H](N5CCN(CC6CC6)CC5)CC4)cc3OC)nc2N1C(C)C [volasertib]
In short: as §1

Measured: log2 fold change

LIMD2 (UniProt Q9BT23)
inactive: ibrutinib 0.032 | [1] 0.098 | barasertib 0.151 | sotrastaurin 0.028

LRRC8E (UniProt Q6NSJ5)
inactive: ralimetinib 0 | [2] 0.005 | [1] -0.005 | [3] 0.099 | vemurafenib 0.045 | [4] 0.116 | [5] 0.026 | [6] -0.103 | [7] -0.094 | sotrastaurin -0.007

LPGAT1 (UniProt Q92604)
inactive: ralimetinib 0.089 | [2] 0.068 | [8] -0.15 | [9] 0.051 | [10] 0.128 | [3] 0.161 | [4] -0.058 | [5] 0.127 | [6] 0.137 | [7] -0.044 | saracatinib 0.084

LRRC9 (UniProt Q6ZRR7)
inactive: [1] 0.042 | vemurafenib -0.011 | [4] -0.022 | [6] -0.25 | [7] 0.131 | sotrastaurin 0.01

LEMD2 (UniProt Q8NC56)
inactive: [11] 0 | ralimetinib 0.048 | [2] -0.011 | [8] 0.08 | [10] -0.003 | [1] 0.047 | [3] -0.031 | [12] -0.136 | [13] 0.038 | [4] 0 | volasertib 0.04 | [5] 0.005 | [6] 0 | [7] -0.017 | saracatinib 0.072 | sotrastaurin 0.009

LRRC42 (UniProt Q9Y546)
inactive: ralimetinib -0.165 | [2] -0.042 | [8] -0.245 | [9] -0.085 | [10] 0.037 | [1] 0.029 | [3] 0.019 | vemurafenib 0.016 | [4] -0.219 | [5] 0.001 | [6] 0.023 | [7] -0.151 | saracatinib 0.115 | sotrastaurin -0.082

LRFN4 (UniProt Q6PJG9)
inactive: [11] -0.078 | [8] -0.066 | [10] 0.095 | [1] -0.121 | [12] -0.133 | vemurafenib 0.054 | [13] 0.084 | [4] 0.004 | volasertib 0.068 | [6] 0.155 | [7] 0.165 | saracatinib -0.065 | sotrastaurin -0.109

LCOR isoform 3 (UniProt Q96JN0)
inactive: [11] 0.134 | [12] -0.065 | [13] 0.075 | volasertib 0.083

LCORL (UniProt Q8N3X6)
inactive: ralimetinib 0.069 | [2] -0.077 | [8] 0.112 | [3] -0.321 | vemurafenib -0.128 | [5] -0.197 | [6] -0.09 | [7] 0.041

LDHA isoform 4 (UniProt P00338)
inactive: [11] -0.026 | [12] -0.089 | [13] 0.109 | volasertib -0.043 | [6] -0.716 | [7] 0.093

LRRIQ1 (UniProt Q96JM4)
active: [1] 0.671
inactive: [11] -0.036 | ralimetinib -0.041 | [2] 0.019 | [3] 0.047 | [12] -0.069 | vemurafenib -0.023 | [13] 0.02 | volasertib 0.015 | [5] -0.015 | sotrastaurin 0.027

LEF1 (UniProt Q9UJU2)
inactive: ralimetinib 0.122 | [2] -0.016 | [1] 0.021 | [3] 0.097 | vemurafenib 0.056 | [5] 0.048 | [6] 0.013 | [7] 0.039 | sotrastaurin -0.028

LRRC45 (UniProt Q96CN5)
inactive: [10] 0.036 | saracatinib 0.003

LRRCC1 (UniProt Q9C099)
inactive: [11] -0.12 | ralimetinib -0.237 | [2] -0.225 | [8] 0.031 | [9] -0.036 | [10] -0.097 | [1] 0.135 | [3] -0.012 | [12] 0.06 | vemurafenib 0.114 | [13] -0.02 | [4] 0.274 | volasertib 0.009 | [5] -0.239 | saracatinib -0.064 | sotrastaurin -0.04

LMO4 (UniProt P61968)
inactive: [11] -0.029 | ralimetinib -0.004 | [2] 0.045 | [8] 0.02 | [10] -0.126 | [1] 0.022 | [3] 0.017 | [12] 0.063 | vemurafenib 0.027 | [13] -0.04 | volasertib -0.113 | [5] -0.139 | saracatinib 0.159 | sotrastaurin -0.156

LRPPRC (UniProt H7C3W8)
inactive: vemurafenib 0.566

LRP1 (UniProt Q07954)
inactive: [11] -0.017 | [1] 0.378 | [12] -0.049 | vemurafenib 0.15 | [13] -0.072 | [4] -0.163 | volasertib 0.004 | sotrastaurin -0.043

LINC00526 (UniProt Q96FQ7)
inactive: [1] -0.099 | sotrastaurin 0.127

LRRC8C (UniProt E9PHY6)
inactive: [8] 0.011 | [9] -0.063 | vemurafenib -0.196

LRP5 (UniProt O75197)
inactive: [8] -0.11 | [10] 0.114 | [4] 0.151 | saracatinib 0.382

LLGL2 (UniProt Q6P1M3)
inactive: [11] 0.041 | [8] 0.209 | [9] -0.119 | [10] 0.021 | [1] -0.217 | [12] 0.046 | vemurafenib 0.03 | [13] 0.066 | [4] 0 | volasertib -0.016 | saracatinib 0.144 | sotrastaurin 0.059

LIN52 (UniProt Q52LA3)
inactive: [11] 0.007 | ralimetinib 0.031 | [2] -0.021 | [8] -0.036 | [10] 0.173 | [1] 0.058 | [3] -0.116 | [12] -0.033 | [13] 0.068 | volasertib -0.21 | [5] -0.04 | saracatinib -0.121 | sotrastaurin 0.002

LONP2 (UniProt Q86WA8)
inactive: vemurafenib -0.167 | [6] -0.185 | [7] 0.142

LGALS3BP (UniProt Q08380)
inactive: [11] 0.061 | [8] 0 | [9] 1.31 | [10] 0.453 | [1] -0.009 | [12] 0 | vemurafenib -0.196 | [13] 0.01 | [4] 0.036 | volasertib 0.044 | [6] 0.168 | [7] 0 | saracatinib 0.219 | sotrastaurin -0.067

LBHD1 (UniProt Q9BQE6)
inactive: [1] -0.049 | sotrastaurin -0.017

LRIF1 (UniProt Q5T3J3)
inactive: [11] -0.088 | ralimetinib -0.09 | [2] -0.055 | [8] 0.089 | [9] -0.143 | [10] -0.044 | [1] -0.031 | [3] 0.046 | [12] -0.197 | vemurafenib 0.213 | [13] -0.005 | [4] -0.009 | volasertib 0.042 | [5] 0.006 | [6] 0.105 | [7] 0.044 | saracatinib 0.046 | sotrastaurin 0.001

LBH (UniProt Q53QV2)
inactive: ralimetinib 0.022 | [2] -0.116 | [8] 0.023 | [10] -0.096 | [3] -0.153 | [4] 0.145 | [5] 0.136 | [6] 0.09 | [7] -0.024 | saracatinib 0.05

LOR (UniProt P23490)
inactive: ibrutinib -0.437 | barasertib 0.006

LSM11 (UniProt P83369)
inactive: [8] 0.004 | [10] -0.198 | [1] -0.161 | vemurafenib 0.077 | [4] 0.06 | [6] 0.115 | [7] 0.212 | saracatinib 0.076 | sotrastaurin -0.085

Random excerpt: three records from the list.
LRRC9 (UniProt Q6ZRR7)
inactive: [1] 0.042 | vemurafenib -0.011 | [4] -0.022 | [6] -0.25 | [7] 0.131 | sotrastaurin 0.01

LRP5 (UniProt O75197)
inactive: [8] -0.11 | [10] 0.114 | [4] 0.151 | saracatinib 0.382

LSM11 (UniProt P83369)
inactive: [8] 0.004 | [10] -0.198 | [1] -0.161 | vemurafenib 0.077 | [4] 0.06 | [6] 0.115 | [7] 0.212 | saracatinib 0.076 | sotrastaurin -0.085

Next part.

LCN2 (UniProt P80188)
inactive: [11] -0.354 | [8] 1.16 | [9] 1.72 | [12] -0.026 | vemurafenib 0.13 | [13] -0.223 | volasertib -0.102

LSR isoform 3 (UniProt Q86X29)
inactive: [1] -0.04 | [6] -0.057 | [7] -0.028 | sotrastaurin 0.016

LRRC25 (UniProt Q8N386)
inactive: [11] -0.002 | [1] 0.06 | [12] 0.12 | [13] -0.042 | [4] 0.021 | volasertib 0.107 | sotrastaurin 0.079

LONRF2 (UniProt Q1L5Z9)
inactive: [8] 0 | [9] 0.05 | [10] 0.029 | [1] 0.056 | [4] 0.155 | [6] 0.093 | [7] -0.05 | saracatinib 0.077 | sotrastaurin 0.154

LRIG2 (UniProt O94898)
inactive: [11] 0.236 | ralimetinib 0.121 | [2] -0.001 | [8] 0.006 | [9] -0.079 | [10] 0.067 | [1] 0.07 | [3] -0.017 | [12] -0.053 | vemurafenib 0.004 | [13] -0.001 | [4] 0.109 | volasertib -0.059 | [5] 0 | [6] -0.109 | [7] -0.014 | saracatinib 0.031 | sotrastaurin -0.011

LDHD (UniProt Q86WU2)
inactive: ibrutinib 0.011 | barasertib 0.022 | [4] 0.093 | [6] -0.027 | [7] 0.214

LIG1 isoform 3 (UniProt P18858)
inactive: ralimetinib -0.086 | [2] -0.126 | [3] 0.036 | [4] 0.114 | [5] -0.068

LNX1 (UniProt Q8TBB1)
inactive: [10] 0.106 | [1] -0.022 | saracatinib 0.334 | sotrastaurin -0.057

LCA5 (UniProt Q86VQ0)
inactive: [9] 0.098 | [1] 0.07 | vemurafenib 0.057 | [4] 0.127 | sotrastaurin -0.073

LATS1 (UniProt O95835)
inactive: [8] 0.011 | [9] 0.315 | [10] 0.069 | [6] -0.028 | [7] -0.019 | saracatinib -0.018

LITAF (UniProt Q99732)
inactive: [11] -0.013 | ralimetinib -0.026 | [2] 0.061 | [8] -0.063 | [10] 0.057 | [1] 0.06 | [3] 0.066 | [12] -0.066 | [13] 0.071 | [4] 0.002 | volasertib -0.015 | [5] 0.082 | saracatinib 0.012 | sotrastaurin -0.003
